Where two headings read alike, the source gives them in different places. Part of at least one peptide drawing is inferred or uncertain, most often the ends.
What was measured:
small intestine [1] = settings: rabbit small intestine; cited from earlier work
small intestine [2] = settings: guinea pig small intestine; cited from earlier work
[3] = test system: gastric antral contractions; assay: upper gastrointestinal endoscopy with antral motility recorded on videotape; assay type: in vivo, healthy male volunteers
mouse colon = settings: cited from earlier work
cat duodenum = settings: cited from earlier work
opossum duodenum = settings: cited from earlier work
distal human colon = settings: cited from earlier work

## CC[C@H](C)[C@H](NC(=O)[C@H](CO)NC(=O)[C@H](CC(N)=O)NC(=O)[C@H](CC(C)C)NC(=O)[C@H](Cc1ccc(O)cc1)NC(=O)[C@H](CCCCN)NC(=O)[C@H](CCCCN)NC(=O)[C@@H](NC(=O)[C@H](C)NC(=O)[C@H](CCSC)NC(=O)[C@H](CCC(N)=O)NC(=O)[C@H](CCCCN)NC(=O)[C@H](CCCNC(=N)N)NC(=O)[C@H](CC(C)C)NC(=O)[C@H](CCCNC(=N)N)NC(=O)[C@@H](NC(=O)[C@H](Cc1ccc(O)cc1)NC(=O)[C@H](CC(N)=O)NC(=O)[C@H](CC(=O)O)NC(=O)[C@@H](NC(=O)[C@H](Cc1ccccc1)NC(=O)[C@@H](NC(=O)[C@H](C)NC(=O)[C@H](CC(=O)O)NC(=O)[C@H](CO)NC(=O)[C@@H](N)Cc1c[nH]cn1)C(C)C)[C@@H](C)O)[C@@H](C)O)C(C)C)C(=O)N[C@@H](CC(C)C)C(=O)N[C@@H](CC(N)=O)C(N)=O [VIP, vasoactive intestinal peptide]
Small intestine [1]
  contractions of the layers of smooth muscle: stimulated contractions
Small intestine [2]
  contractions of the layers of smooth muscle: stimulated contractions
[3]; after injection of the appropriate dose into the blood stream (summary statement)
  duration of paralytic effect: about seven
[3]; first patient, 5 ng/kg
  duration of decrease in contractions: two
[3]; first patient, additional dose of 20 ng VIP per kg bodyweight, for the remainder of the study
  antral contractions: completely abolished
[3]; first patient, after 5 ng VIP per kg bodyweight i.v., average of 8 before VIP
  number of contractions: 4 contractions per 2 minute interval
[3]; second patient, 20 ng VIP/kg
  number of contractions occurring: barely affected
[3]; second patient, 5 and 20 ng/kg of bodyweight
  gastrointestinal motility: no significant effect
[3]; second patient, VIP infusion of 100 ng/kg
  gastrointestinal motility: significant reduction
[3]; second patient, after first dose of 5 ng VIP per kilogram bodyweight
  number of contractions: 6 contractions per 2 minute interval
[3]; third patient, 0.3 µg/kg
  duration of decrease in motility: seven
  motility: decrease in motility
[3]; third patient, VIP infusions of 0.05, 0.02 and 0.1 µg/kg
  antral motility: no effect
Mouse colon
  contractions of the layers of smooth muscle: stimulated contractions
Cat duodenum
  contractions of the layers of smooth muscle: stimulated contractions
Opossum duodenum
  effect on duodenum: stimulated contractions
Distal human colon
  circular muscle: small relaxation
  longitudinal muscle contractions: did not relax

— patent EP0631503B1, “USE OF VASOACTIVE INTESTINAL PEPTIDE (VIP) TO INDUCE TEMPORARY PARALYSIS OF THE GASTROINTESTINAL TRACT” (KORMAN, Louis Y., priority 1991, dated 2001)
